According to the supplement of paper PMC12067093, “Discovery and optimisation of a covalent ligand for TRIM25 and its application to targeted protein ubiquitination” (Chemical Science, 2025):
This is one part of the list.

Chains of the proteins cited; added tags and fusions are not shown. Lines headed by an entry give the natural chain unless they say otherwise; changes in a name come on top.
UniProt P52701: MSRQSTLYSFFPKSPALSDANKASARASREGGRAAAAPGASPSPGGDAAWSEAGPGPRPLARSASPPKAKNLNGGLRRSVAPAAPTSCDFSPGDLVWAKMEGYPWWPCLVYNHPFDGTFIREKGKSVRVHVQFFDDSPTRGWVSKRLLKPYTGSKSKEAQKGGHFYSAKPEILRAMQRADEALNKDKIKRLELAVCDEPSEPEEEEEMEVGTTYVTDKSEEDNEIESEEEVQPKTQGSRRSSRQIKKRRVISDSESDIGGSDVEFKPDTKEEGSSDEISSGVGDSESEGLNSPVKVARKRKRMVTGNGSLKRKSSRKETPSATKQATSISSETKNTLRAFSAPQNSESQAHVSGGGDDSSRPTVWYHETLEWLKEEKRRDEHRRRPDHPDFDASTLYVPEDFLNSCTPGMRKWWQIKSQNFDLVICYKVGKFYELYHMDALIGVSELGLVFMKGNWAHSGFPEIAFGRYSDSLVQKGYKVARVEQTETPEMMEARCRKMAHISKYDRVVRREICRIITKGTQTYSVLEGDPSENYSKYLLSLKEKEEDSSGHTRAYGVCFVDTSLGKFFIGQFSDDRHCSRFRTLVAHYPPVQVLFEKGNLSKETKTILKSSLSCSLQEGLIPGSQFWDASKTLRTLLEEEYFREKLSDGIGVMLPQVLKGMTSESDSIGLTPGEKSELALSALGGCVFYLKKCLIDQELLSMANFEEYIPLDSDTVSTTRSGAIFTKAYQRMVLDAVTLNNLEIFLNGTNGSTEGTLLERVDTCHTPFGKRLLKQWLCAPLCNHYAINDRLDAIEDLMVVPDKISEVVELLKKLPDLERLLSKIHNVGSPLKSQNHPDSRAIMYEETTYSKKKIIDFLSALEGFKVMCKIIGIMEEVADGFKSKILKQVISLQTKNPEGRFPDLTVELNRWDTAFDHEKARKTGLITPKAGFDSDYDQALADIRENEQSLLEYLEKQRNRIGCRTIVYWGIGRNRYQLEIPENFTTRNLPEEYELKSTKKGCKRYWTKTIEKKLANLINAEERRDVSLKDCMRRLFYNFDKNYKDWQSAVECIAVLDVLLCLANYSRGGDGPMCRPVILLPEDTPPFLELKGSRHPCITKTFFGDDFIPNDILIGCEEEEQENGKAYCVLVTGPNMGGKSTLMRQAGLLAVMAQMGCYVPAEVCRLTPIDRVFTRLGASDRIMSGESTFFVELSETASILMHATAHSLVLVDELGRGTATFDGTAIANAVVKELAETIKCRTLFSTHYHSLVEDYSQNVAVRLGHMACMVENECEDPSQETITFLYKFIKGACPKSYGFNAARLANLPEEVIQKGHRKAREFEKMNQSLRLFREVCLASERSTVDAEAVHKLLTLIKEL
UniProt O75592: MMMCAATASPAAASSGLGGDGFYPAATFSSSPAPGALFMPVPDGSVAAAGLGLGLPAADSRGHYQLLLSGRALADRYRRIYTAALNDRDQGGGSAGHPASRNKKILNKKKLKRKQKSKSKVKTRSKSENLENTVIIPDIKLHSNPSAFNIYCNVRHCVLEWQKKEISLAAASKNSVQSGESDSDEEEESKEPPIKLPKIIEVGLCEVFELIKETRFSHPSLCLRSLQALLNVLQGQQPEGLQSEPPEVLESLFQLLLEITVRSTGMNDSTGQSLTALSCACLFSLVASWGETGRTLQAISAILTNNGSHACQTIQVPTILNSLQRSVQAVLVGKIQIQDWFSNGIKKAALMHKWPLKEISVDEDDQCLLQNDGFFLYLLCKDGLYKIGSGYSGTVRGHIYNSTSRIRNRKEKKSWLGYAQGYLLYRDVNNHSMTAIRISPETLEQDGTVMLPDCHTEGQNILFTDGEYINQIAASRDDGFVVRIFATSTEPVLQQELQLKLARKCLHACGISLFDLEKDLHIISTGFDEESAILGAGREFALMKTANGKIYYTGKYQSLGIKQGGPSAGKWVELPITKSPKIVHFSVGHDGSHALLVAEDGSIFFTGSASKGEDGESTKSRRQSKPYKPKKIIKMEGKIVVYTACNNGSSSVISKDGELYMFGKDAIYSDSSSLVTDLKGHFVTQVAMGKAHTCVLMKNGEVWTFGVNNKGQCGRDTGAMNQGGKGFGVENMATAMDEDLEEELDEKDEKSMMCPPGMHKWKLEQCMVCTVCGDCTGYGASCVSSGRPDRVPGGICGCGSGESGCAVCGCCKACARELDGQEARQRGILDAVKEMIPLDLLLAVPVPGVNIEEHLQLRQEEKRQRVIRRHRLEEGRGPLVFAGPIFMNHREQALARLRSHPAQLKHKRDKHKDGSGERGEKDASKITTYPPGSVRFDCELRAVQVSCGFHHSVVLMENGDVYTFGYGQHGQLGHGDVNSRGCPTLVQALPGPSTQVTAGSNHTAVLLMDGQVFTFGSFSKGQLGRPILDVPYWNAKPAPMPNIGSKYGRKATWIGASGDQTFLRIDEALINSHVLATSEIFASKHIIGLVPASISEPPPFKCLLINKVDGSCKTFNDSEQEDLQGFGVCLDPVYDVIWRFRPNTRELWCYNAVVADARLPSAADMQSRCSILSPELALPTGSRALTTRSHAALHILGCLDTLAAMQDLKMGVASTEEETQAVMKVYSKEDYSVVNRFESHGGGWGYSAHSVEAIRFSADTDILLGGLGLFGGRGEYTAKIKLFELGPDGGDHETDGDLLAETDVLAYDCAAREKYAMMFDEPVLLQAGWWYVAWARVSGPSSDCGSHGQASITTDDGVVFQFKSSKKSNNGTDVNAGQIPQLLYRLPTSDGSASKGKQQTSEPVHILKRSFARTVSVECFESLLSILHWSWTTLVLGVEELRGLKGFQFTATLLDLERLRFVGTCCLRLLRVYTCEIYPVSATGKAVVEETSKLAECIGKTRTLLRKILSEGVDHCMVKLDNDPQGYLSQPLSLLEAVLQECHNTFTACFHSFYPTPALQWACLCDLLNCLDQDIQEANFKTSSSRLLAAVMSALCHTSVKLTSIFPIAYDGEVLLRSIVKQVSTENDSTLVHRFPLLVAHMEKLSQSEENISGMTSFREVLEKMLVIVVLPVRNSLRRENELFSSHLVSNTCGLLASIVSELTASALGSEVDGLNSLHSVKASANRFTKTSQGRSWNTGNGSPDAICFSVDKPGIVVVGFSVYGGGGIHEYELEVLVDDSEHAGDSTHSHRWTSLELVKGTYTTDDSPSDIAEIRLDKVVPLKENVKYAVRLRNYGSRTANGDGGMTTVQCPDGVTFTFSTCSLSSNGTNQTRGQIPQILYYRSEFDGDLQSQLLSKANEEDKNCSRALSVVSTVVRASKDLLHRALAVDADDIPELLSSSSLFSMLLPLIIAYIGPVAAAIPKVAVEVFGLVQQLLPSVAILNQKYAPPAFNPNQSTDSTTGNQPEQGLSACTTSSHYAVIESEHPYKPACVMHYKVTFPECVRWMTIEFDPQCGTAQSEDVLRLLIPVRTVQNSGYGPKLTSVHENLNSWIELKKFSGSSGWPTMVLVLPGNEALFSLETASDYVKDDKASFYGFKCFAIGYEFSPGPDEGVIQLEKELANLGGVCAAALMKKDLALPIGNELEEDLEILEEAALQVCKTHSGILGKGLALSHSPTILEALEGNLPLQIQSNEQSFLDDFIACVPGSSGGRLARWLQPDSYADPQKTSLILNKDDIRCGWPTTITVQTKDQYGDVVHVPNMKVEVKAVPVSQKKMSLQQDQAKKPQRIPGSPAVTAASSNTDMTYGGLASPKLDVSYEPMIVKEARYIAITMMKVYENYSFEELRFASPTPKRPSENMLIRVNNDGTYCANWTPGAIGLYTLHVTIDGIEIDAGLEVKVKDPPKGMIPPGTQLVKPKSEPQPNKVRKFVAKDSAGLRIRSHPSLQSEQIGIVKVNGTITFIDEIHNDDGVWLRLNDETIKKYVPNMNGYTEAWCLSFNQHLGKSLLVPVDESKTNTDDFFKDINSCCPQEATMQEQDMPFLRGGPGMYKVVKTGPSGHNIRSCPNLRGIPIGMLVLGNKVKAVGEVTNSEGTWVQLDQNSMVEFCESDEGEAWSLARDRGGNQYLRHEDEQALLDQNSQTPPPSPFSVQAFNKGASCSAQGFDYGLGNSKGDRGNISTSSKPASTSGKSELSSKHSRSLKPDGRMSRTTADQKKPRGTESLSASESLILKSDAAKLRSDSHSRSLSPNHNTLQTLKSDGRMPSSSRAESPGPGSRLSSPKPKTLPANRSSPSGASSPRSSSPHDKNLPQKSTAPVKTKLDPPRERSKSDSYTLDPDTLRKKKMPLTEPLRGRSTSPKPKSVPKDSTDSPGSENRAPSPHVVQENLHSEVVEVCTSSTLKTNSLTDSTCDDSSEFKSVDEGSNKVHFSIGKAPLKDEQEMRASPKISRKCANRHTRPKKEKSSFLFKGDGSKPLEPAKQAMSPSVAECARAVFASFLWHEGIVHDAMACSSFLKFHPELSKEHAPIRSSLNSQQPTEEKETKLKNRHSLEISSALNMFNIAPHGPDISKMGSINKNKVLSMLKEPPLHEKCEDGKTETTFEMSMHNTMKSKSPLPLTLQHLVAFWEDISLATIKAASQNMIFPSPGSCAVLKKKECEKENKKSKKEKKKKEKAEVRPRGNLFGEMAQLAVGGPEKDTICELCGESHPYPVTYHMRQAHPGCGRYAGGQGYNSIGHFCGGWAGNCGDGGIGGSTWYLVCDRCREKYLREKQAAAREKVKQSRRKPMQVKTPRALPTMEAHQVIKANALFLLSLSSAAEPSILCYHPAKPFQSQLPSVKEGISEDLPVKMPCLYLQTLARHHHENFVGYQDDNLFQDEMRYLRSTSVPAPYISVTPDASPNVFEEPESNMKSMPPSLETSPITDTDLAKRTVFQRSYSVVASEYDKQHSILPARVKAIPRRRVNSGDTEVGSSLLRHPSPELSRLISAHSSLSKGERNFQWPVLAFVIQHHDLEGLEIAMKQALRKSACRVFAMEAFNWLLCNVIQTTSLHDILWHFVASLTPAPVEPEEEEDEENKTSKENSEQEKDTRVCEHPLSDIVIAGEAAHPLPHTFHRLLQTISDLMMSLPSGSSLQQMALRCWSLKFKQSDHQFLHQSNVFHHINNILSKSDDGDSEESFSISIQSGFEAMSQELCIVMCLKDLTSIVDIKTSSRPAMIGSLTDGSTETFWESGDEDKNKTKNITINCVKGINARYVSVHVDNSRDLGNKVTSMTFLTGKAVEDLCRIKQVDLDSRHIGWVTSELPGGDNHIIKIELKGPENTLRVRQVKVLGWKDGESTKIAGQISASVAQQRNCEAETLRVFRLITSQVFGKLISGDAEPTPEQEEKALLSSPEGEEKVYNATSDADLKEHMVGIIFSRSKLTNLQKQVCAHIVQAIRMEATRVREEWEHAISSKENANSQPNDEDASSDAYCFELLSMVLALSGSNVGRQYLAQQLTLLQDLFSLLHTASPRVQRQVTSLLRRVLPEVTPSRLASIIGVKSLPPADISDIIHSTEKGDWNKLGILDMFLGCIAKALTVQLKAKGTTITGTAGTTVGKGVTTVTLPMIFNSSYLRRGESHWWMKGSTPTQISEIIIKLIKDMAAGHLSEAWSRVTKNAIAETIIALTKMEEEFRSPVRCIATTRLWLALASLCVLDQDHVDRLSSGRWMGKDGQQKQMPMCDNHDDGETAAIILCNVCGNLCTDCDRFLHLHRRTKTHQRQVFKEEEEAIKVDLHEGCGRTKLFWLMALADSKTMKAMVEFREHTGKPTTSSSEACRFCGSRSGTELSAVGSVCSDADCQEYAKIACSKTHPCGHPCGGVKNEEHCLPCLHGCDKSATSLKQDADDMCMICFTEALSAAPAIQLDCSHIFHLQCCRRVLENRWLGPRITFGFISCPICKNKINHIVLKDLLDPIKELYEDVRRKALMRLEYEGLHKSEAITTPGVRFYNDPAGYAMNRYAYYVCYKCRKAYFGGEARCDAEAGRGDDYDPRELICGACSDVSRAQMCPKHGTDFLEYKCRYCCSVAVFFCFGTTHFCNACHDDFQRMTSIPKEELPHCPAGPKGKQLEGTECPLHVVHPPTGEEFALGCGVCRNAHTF
UniProt Q9H7P6: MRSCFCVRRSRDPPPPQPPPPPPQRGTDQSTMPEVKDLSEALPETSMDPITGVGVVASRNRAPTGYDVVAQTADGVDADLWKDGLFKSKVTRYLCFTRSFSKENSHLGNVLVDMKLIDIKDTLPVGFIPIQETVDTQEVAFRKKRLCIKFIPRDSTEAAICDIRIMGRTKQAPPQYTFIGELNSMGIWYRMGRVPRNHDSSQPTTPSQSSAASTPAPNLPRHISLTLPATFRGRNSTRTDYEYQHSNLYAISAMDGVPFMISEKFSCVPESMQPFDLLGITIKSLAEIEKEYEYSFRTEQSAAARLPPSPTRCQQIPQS

compound: CC1Cc2ccccc2N1C(=O)C1CCCN(C1)C(=O)CCl (mixture of isomers) [TRIM25 ligand 11 (diastereomer mixture)]; assay: probe-labelled cysteine peptide fold change vs DMSO (competition) (log2 fold change); higher = less target engagement (more negative = stronger competition); conditions: 10 µM; THP-1; incubation time: 4 h
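Note: competitive chemoproteomic profiling in live THP-1 cells with an iodoacetamide desthiobiotin (IA-DTB) probe, comparing probe-labelled peptide intensities in compound-treated cells against DMSO-treated controls.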

| Target | probe-labelled cysteine peptide fold change |
| --- | --- |
| MSH6_P52701_406_RPDHPDFDASTLYVPEDFLNSCTPGMR (UniProt P52701) | 0.154 |
| MSH6_P52701_765_VDTCHTPFGK (UniProt P52701) | 0.0647 |
| MTOR_P42345_2243_YAVIPLSTNSGLIGWVPHCDTLHALIR (UniProt P42345) | -0.16 |
| MRPS27_Q92552_101_HSPNCWYLR (UniProt Q92552) | 0.0385 |
| MRPS18A_Q9NVS2_108_KITGLCQEEHR (UniProt Q9NVS2) | -0.059 |
| MSH6_P52701_1158_QAGLLAVMAQMGCYVPAEVCR (UniProt P52701) | 0.132 |
| MYCBP2_O75592_4318_VDLHEGCGR (UniProt O75592) | 0.246 |
| MVB12B_Q9H7P6_267_FSCVPESMQPFDLLGITIK (UniProt Q9H7P6) | -0.551 |
| MTG1_Q9BT17_113_NVIFTNCVK (UniProt Q9BT17) | 0.0998 |
| MTA1_Q13330_281_AISALVPQGGPVLCRDEMEEWSASEANLFEEALEK (UniProt Q13330) | -0.0842 |
| MTHFSD_Q2M296_215_VIATGCK (UniProt Q2M296) | 0.0177 |
| MYBBP1A_Q9BQG0_968_AGTDPSHMPTGPQAASCLDLNLVTR (UniProt Q9BQG0) | -0.24 |
| MYCBP2_O75592_4578_ELICGACSDVSR (UniProt O75592) | -0.102 |
| MTREX_P42285_983_LEIDEETYLSSFKPHLMDVVYTWATGATFAHICK (UniProt P42285) | 0.115 |
| MTHFD1_P11586_326_SCKPKPIGK (UniProt P11586) | -0.35 |
| MTMR10_Q9NXD2_707_SGPLEACYGELGQSR (UniProt Q9NXD2) | 0.0162 |
| MUT_P22033_471_IEECAAR (UniProt P22033) | 0.228 |
| MYCBP2_O75592_1198_SHAALHILGCLDTLAAMQDLK (UniProt O75592) | -0.148 |
| MYBBP1A_Q9BQG0_678_SVFGHICSHLTPR (UniProt Q9BQG0) | 0.13 |

same assay, conditions: 50 µM; THP-1; incubation time: 4 h

| Target | probe-labelled cysteine peptide fold change |
| --- | --- |
| MYCBP2_O75592_4544_YAYYVCYK (UniProt O75592) | -0.0266 |
| MYCBP2_O75592_4652_QLEGTECPLHVVHPPTGEEFALGCGVCR (UniProt O75592) | -0.0984 |
| MSH2_P43246_176_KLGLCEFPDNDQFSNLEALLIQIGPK (UniProt P43246) | -0.105 |
| MTHFD1L_Q6UB35_906_IDRYTQQGFGNLPICMAK (UniProt Q6UB35) | -0.217 |
| MSH3_P20585_847_QGDYCRPTVQEER (UniProt P20585) | -0.0305 |
| MTMR9_Q96QG7_30_VDNVVLHRPFYPAVEGTLCLTGHHLILSSR (UniProt Q96QG7) | 0.042 |
| MRPS28_Q9Y2Q9_122+124_FHCVCR (UniProt Q9Y2Q9) | -0.0144 |
| MYCBP2_O75592_3241_DTICELCGESHPYPVTYHMR (UniProt O75592) | -0.0261 |
| MYADM_Q96S97_279_SRDVSCSR (UniProt Q96S97) | 1.29 |
| MTMR6_Q9Y217_383_CGQLDGDPK (UniProt Q9Y217) | 0.145 |
| MYEF2_Q9P2K5_546_FSQCGHVMFAEIK (UniProt Q9P2K5) | -0.13 |
| MTCH2_Q9Y6C9_49_QVCQLPGLFSYAQHIASIDGRR (UniProt Q9Y6C9) | -0.233 |
| MYD88_Q99836_203_LCVSDRDVLPGTCVWSIASELIEK (UniProt Q99836) | 0.108 |
| MTF2_Q9Y483_133_CGQGYHQLCHTPHIDSSVIDSDEK (UniProt Q9Y483) | 0.228 |
| MYBL2_P10244_69_TDQQCQYR (UniProt P10244) | 0.222 |
| MYCBP2_O75592_938_FDCELR (UniProt O75592) | -0.0525 |
| MSH6_P52701_406_RPDHPDFDASTLYVPEDFLNSCTPGMR (UniProt P52701) | 0.165 |
| MSH6_P52701_765_VDTCHTPFGK (UniProt P52701) | 0.104 |
| MTOR_P42345_2243_YAVIPLSTNSGLIGWVPHCDTLHALIR (UniProt P42345) | -0.0117 |
| MRPS27_Q92552_101_HSPNCWYLR (UniProt Q92552) | -0.00466 |
| MRPS18A_Q9NVS2_108_KITGLCQEEHR (UniProt Q9NVS2) | 0.0465 |
| MSH6_P52701_1158_QAGLLAVMAQMGCYVPAEVCR (UniProt P52701) | -0.075 |
| MYCBP2_O75592_4318_VDLHEGCGR (UniProt O75592) | 0.0775 |
| MVB12B_Q9H7P6_267_FSCVPESMQPFDLLGITIK (UniProt Q9H7P6) | -0.201 |
